# Data as given in PMC12313917.
# By UniProt entry, the sequences of proteins in these tests, tags left out. Residues count along the entry.
# UniProt P53994: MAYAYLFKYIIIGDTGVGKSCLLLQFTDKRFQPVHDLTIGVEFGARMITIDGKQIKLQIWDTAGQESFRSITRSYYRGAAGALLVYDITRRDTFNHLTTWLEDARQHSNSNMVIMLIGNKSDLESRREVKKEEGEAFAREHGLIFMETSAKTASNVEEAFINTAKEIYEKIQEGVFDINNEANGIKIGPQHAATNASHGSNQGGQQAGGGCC
# UniProt Q9EPL4, residues 19-318: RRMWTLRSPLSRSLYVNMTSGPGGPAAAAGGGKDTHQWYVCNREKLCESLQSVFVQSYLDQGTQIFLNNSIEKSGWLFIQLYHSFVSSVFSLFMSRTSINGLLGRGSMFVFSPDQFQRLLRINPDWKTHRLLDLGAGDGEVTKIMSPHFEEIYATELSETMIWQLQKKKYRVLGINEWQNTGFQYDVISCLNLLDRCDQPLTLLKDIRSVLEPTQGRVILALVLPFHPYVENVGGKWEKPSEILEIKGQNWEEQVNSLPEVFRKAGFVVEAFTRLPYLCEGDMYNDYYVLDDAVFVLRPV
# Results are given in words; binding and its absence hold for the method and conditions named. Binding seen in cells or lysates may run through a third protein. Some entries that bind do so weakly or less than the wild type. For some assays here: Sequences can lack the tags named with a protein.
# What was measured:
# [1] = target: HA-RAB2a (UniProt P53994); assay: co-IP; co-expression in WT E14 mESCs for 48 hrs; IP with cross-linked anti-HA magnetic beads against mouse IgG control, over-night; WB with anti-FLAG and anti-HA
# [2] = target: T1, STMN1-HA (mouse) (UniProt P54227); assay: as above
# T1 sequence: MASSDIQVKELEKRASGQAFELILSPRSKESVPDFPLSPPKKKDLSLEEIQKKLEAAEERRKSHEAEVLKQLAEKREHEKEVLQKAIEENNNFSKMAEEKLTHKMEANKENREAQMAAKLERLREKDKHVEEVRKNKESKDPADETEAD
substance,measurement,setting,value
METTL9-FLAG (from UniProt Q9EPL4 19-318) (enzyme),binding,[1],binds
same,binding,[2],binds
